Assay results as given in patent publication US20170291948A1.
Results are given in words; binding and its absence hold for the method and conditions named. Some binding calls cover weakened binding; strength is not graded here.

Amino acid sequences for entries named in this document (tags omitted). A change or cut given only in a name is not applied to a line headed by its entry. Chains listed by the source or under a name are the forms on record and can include a tag or linker.
human NRP1 protein (O14786, form named): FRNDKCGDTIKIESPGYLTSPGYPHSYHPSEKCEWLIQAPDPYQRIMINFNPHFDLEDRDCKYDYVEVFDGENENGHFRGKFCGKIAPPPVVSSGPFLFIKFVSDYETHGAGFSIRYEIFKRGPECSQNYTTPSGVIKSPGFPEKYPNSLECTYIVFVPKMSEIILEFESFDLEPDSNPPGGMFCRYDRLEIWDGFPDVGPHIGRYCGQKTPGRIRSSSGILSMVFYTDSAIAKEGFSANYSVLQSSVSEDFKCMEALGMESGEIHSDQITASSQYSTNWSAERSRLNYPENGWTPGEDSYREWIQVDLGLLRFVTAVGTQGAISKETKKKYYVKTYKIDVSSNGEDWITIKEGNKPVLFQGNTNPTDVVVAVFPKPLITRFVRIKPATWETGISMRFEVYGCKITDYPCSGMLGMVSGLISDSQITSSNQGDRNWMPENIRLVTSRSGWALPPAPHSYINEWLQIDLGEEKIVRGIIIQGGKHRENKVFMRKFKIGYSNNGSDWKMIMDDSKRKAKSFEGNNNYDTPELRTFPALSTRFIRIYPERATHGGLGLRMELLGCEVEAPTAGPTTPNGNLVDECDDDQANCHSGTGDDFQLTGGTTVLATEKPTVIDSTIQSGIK

Tests used:
[1] = molecular target: human NRP1 protein (human) (UniProt O14786); assay: ELISA and SPR analysis, IgG on human NRP1
[2] = molecular target: human NRP1 protein (human) (UniProt O14786); assay: specificity analysis against proteins structurally similar to human NRP1 (FIG. 15)

Row | binding [1] | binding [2] | Binder
1 | binds | binds | 1A03 anti-NRP1 IgG (antibody, V domains shown) VH: EVQLLESGGGLVQPGGSLRLSCAASGFTFSSYYMSWVRQAPGKGLEWVSAISPGSSNKYYADSVQGRFTISRDNSKNTLYLQMNSLRAEDTAVYYCARRKKSFDYWGQGTLVTVSS VL: QSVLTQPPSASGTPGQRVTISCSGPSSNIGNNDVSWYQQLPGTAPKLLIYSDNNRPSGVPDRFSGSKSGTSASLAISGLRSEDEADYYCGAWVASLSAYVFGGGTKLTVL
2 | binds | binds | IRCR-101 (3H10) anti-NRP1 IgG (antibody, V domains shown) VH: EVQLLESGGGLVQPGGSLRLSCAASGFTFSSYYMSWVRQAPGKGLEWVSAISPGSSNKYYADSVKGRFTISRDNSKNTLYLQMNSLRAEDTAVYYCARRKYMFDYWGQGTLVTVSS VL: QSVLTQPPSASGTPGQRVTISCTGSSSNIGNNDVYWYQQLPGTAPKLLIYSDSNRPSGVPDRFSGSKSGTSASLAISGLRSEDEADYYCASWDSSLSGYVFGGGTKLTVL
